From paper PMC5945496 come the findings set out here.

The experiment addresses T1, nuclear factor erythroid 2-related factor 2 (NRF2) (human (endogenous in H1299)) (UniProt Q16236).
T1 sequence: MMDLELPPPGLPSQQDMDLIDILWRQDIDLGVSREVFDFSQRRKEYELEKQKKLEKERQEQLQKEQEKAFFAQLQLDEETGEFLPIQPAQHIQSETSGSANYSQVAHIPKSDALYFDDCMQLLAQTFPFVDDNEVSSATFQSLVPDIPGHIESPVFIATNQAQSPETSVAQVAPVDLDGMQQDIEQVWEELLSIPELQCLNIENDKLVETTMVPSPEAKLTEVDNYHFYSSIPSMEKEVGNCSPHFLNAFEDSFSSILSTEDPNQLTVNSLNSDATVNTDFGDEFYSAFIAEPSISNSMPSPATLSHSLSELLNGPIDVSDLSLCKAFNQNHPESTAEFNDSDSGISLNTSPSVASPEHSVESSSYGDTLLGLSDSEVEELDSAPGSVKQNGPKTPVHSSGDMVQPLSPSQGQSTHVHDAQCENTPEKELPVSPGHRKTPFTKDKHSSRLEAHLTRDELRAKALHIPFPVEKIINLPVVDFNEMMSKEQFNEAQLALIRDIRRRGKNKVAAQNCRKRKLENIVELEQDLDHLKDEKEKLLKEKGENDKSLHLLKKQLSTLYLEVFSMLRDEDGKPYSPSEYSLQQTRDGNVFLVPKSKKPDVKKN
The experiment in a line: co-IP; immunoprecipitation of endogenous NRF2 (anti-NRF2 antibody, protein G-Sepharose) from lysates of H1299 cells transiently transfected with p53R175H or p53 peptide aptamer vectors; Co-IP buffer 150 mM NaCl, 50 mM Tris-HCl pH 8, 1 mM EDTA, 0.5% NP40, 10% glycerol; overnight at 4°C; western blot. Background: In western blotting, separated proteins are transferred to a membrane and probed.

These are yes or no findings as the source states them, for the method shown. In cells and extracts the contact can be indirect. Some results given as binding are weak or reduced against the parent protein; the word gives no strength.

For the substance “peptide1 (pep1), p53 peptide aptamer corresponding to aa 98-128 of the p53 DNA-binding domain (from UniProt P04637 98-128)”, the binding result is listed as “binds”.
